{"source": "PubChem BioAssay AID1259405 (NCATS, 2018)", "test": "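Mouse-designed siRNAs used to find CHO productivity engineering targets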 (primary screen)", "system": "Chinese hamster CHO-K1 ovary cells with stable secreted eGFP expression", "reagent": "single siRNA against mouse genes, 0.8 pmol siRNA per well (2 µl of 400 nM stock)", "timing": "3 days", "measured": "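Percent of the per-plate non-targeting control median for intracellular GFP per well by laser scanning cytometry and for cell viability by ATP luminescence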", "direction": "GFP, % of control: higher = more GFP per well, higher productivity; viability (ATP), % of control: higher = more viable cells (more ATP)", "hit rule": "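Called active when intracellular GFP, relative to negative control, is at or above 120%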", "note": "The deposit covers about 50,000 reagents; shown is a random part of them. Over the whole deposit, about 4,000 (8%) were called active. 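Mouse siRNA library applied to hamster cells; one well for each siRNA.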 The numbers tell different reagents against one gene apart. No sequences are given here."}
The opening 3 records as a preview:
{"Gene": "Cmtr2", "reagent": 1, "GFP, % of control": 84.4, "viability (ATP), % of control": 101, "Outcome": "inactive"}
{"Gene": "Cmtr2", "reagent": 2, "GFP, % of control": 99.8, "viability (ATP), % of control": 81.4, "Outcome": "inactive"}
{"Gene": "Cmtr2", "reagent": 3, "GFP, % of control": 137, "viability (ATP), % of control": 135, "Outcome": "active"}

Results, repeating the preview:
{"Gene": "Cmtr2", "reagent": 1, "GFP, % of control": 84.4, "viability (ATP), % of control": 101, "Outcome": "inactive"}
{"Gene": "Cmtr2", "reagent": 2, "GFP, % of control": 99.8, "viability (ATP), % of control": 81.4, "Outcome": "inactive"}
{"Gene": "Cmtr2", "reagent": 3, "GFP, % of control": 137, "viability (ATP), % of control": 135, "Outcome": "active"}
{"Gene": "Fam241a", "reagent": 1, "GFP, % of control": 79.5, "viability (ATP), % of control": 64.3, "Outcome": "inactive"}
{"Gene": "Fam241a", "reagent": 2, "GFP, % of control": 76.4, "viability (ATP), % of control": 92.9, "Outcome": "inactive"}
{"Gene": "Fam241a", "reagent": 3, "GFP, % of control": 57.4, "viability (ATP), % of control": 64.9, "Outcome": "inactive"}
{"Gene": "Bbs4", "reagent": 1, "GFP, % of control": 63.9, "viability (ATP), % of control": 66, "Outcome": "inactive"}
{"Gene": "Bbs4", "reagent": 2, "GFP, % of control": 73.6, "viability (ATP), % of control": 83.6, "Outcome": "inactive"}
{"Gene": "Bbs4", "reagent": 3, "GFP, % of control": 55.3, "viability (ATP), % of control": 53.7, "Outcome": "inactive"}
{"Gene": "Tnk1", "reagent": 1, "GFP, % of control": 54.1, "viability (ATP), % of control": 52.1, "Outcome": "inactive"}
{"Gene": "Tnk1", "reagent": 2, "GFP, % of control": 57.3, "viability (ATP), % of control": 83.5, "Outcome": "inactive"}
{"Gene": "Tnk1", "reagent": 3, "GFP, % of control": 41.8, "viability (ATP), % of control": 55.9, "Outcome": "inactive"}
{"Gene": "Wapl", "reagent": 1, "GFP, % of control": 66.1, "viability (ATP), % of control": 55, "Outcome": "inactive"}
{"Gene": "Wapl", "reagent": 2, "GFP, % of control": 70.4, "viability (ATP), % of control": 81.4, "Outcome": "inactive"}
{"Gene": "Wapl", "reagent": 3, "GFP, % of control": 112, "viability (ATP), % of control": 111, "Outcome": "inactive"}
{"Gene": "Ramp3", "reagent": 1, "GFP, % of control": 71.3, "viability (ATP), % of control": 60.8, "Outcome": "inactive"}
{"Gene": "Ramp3", "reagent": 2, "GFP, % of control": 97.8, "viability (ATP), % of control": 60.2, "Outcome": "inactive"}
{"Gene": "Ramp3", "reagent": 3, "GFP, % of control": 14.3, "viability (ATP), % of control": 4.4, "Outcome": "inactive"}
{"Gene": "Septin11", "reagent": 1, "GFP, % of control": 71.9, "viability (ATP), % of control": 78.9, "Outcome": "inactive"}
{"Gene": "Septin11", "reagent": 2, "GFP, % of control": 57.3, "viability (ATP), % of control": 74.8, "Outcome": "inactive"}
{"Gene": "Mrgpra6", "reagent": 1, "GFP, % of control": 50.2, "viability (ATP), % of control": 32.6, "Outcome": "inactive"}
{"Gene": "Mrgpra6", "reagent": 2, "GFP, % of control": 84.5, "viability (ATP), % of control": 87.6, "Outcome": "inactive"}
{"Gene": "Mrgpra6", "reagent": 3, "GFP, % of control": 55.3, "viability (ATP), % of control": 62.2, "Outcome": "inactive"}
{"Gene": "Cers1", "reagent": 1, "GFP, % of control": 43.2, "viability (ATP), % of control": 54.3, "Outcome": "inactive"}
{"Gene": "Cers1", "reagent": 2, "GFP, % of control": 61.8, "viability (ATP), % of control": 57.5, "Outcome": "inactive"}
{"Gene": "Cers1", "reagent": 3, "GFP, % of control": 97.4, "viability (ATP), % of control": 139, "Outcome": "inactive"}
{"Gene": "Sv2a", "reagent": 1, "GFP, % of control": 111, "viability (ATP), % of control": 81.7, "Outcome": "inactive"}
{"Gene": "Sv2a", "reagent": 2, "GFP, % of control": 98.3, "viability (ATP), % of control": 95.7, "Outcome": "inactive"}
{"Gene": "Sv2a", "reagent": 3, "GFP, % of control": 75.5, "viability (ATP), % of control": 88.5, "Outcome": "inactive"}
